## Results of single-concentration screens

Amino acid sequences for entries named in this document (tags omitted). Residues count along the entry.
UniProt Q8IDJ8, 1-583: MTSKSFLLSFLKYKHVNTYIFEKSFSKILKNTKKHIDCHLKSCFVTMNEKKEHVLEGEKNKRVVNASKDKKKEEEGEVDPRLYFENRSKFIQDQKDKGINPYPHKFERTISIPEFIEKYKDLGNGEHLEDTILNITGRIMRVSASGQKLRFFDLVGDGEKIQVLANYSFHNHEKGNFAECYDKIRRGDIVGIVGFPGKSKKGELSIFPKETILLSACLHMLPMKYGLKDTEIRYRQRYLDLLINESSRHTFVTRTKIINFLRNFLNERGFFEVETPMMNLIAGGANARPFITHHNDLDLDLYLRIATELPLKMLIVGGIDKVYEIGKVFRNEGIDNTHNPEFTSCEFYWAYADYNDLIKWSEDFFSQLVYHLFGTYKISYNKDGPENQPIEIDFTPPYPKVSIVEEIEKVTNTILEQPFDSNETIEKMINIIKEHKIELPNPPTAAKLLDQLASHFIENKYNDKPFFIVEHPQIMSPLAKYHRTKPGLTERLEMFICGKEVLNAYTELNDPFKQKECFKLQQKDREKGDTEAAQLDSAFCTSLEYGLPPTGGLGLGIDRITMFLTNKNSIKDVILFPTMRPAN
UniProt P9WFT3, whole entry: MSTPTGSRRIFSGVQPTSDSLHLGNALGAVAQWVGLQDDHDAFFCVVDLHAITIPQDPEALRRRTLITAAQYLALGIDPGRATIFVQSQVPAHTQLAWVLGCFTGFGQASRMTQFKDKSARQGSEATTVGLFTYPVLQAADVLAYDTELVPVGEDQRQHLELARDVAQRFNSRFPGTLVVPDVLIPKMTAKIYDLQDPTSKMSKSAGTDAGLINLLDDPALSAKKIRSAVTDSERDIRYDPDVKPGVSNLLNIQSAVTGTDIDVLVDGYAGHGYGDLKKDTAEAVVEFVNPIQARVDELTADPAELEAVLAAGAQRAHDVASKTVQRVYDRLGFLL
UniProt P9WPC5, whole entry: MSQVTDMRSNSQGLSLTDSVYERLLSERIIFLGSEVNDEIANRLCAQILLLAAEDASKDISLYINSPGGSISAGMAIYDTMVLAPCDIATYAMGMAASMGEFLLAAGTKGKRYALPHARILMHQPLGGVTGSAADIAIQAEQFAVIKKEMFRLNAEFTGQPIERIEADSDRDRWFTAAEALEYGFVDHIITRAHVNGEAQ
UniProt P9WPC3, whole entry partner: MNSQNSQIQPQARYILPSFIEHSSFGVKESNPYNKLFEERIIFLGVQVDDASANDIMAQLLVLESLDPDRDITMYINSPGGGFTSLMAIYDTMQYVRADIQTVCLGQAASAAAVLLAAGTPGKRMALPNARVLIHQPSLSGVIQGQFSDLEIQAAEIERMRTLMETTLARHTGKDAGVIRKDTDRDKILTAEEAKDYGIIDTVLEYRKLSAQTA

PfKRS1: 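Enzyme assay of the cytosolic lysyl-tRNA synthetase in 384-well plates, read by luminescence. Target: Lysine-tRNA ligase, Plasmodium falciparum 3D7 (UniProt Q8IDJ8). Concentration: 30 µM. Higher reads as stronger inhibition, judged from the few compounds that gave an IC50. Of about 69,000 compounds tested this way, about 49 (0.071%) reached 50% or more in at least one test.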
MtTrpRS: 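Enzyme assay of tryptophanyl-tRNA synthetase; the read-out is not stated. Target: Tryptophan-tRNA ligase, Mycobacterium tuberculosis (UniProt P9WFT3). Tested at 10 µM. Higher most likely means stronger inhibition; the record gives no direction and few retests gave an IC50. Size under these conditions: about 65,000 compounds, about 64 of them at 50% or above in at least one test.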
ClpP1P2: 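Protease assay of ClpP1P2, read by the AMC dye that it sets free. Target: ClpP1P2, Mycobacterium tuberculosis (UniProt P9WPC5 and UniProt P9WPC3). Tested at 50 µM. Direction is inferred from only a few compounds that gave an IC50; most scored high, so higher reads as stronger inhibition. Most other retested compounds had strongly negative values. Size under these conditions: about 69,000 compounds, about 10 of them at 50% or above in at least one test.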

Values are the deposited “Percent Effect”, in %.
How 0% and 100% were set is not recorded. Most values in the screen are low, and negative values occur.
Compounds were drawn at random from those tested, without regard to their results.

For CCSc1cc(C(=O)NCCC(=O)N(C)C)ccn1 the result was PfKRS1: 1.901%; MtTrpRS: 5.784%; ClpP1P2: 0.8409%. Result for O=C(c1ccsc1)N1CCC2(CCN2Cc2ccc(F)cc2)C1 (centres unmarked) was PfKRS1: 0.8766%; MtTrpRS: 5.329%; ClpP1P2: -12%. CCCS(=O)(=O)N1C[C@@H]2CN(Cc3cnn(C)c3)CCO[C@@H]2C1 gave PfKRS1: 3.358%; MtTrpRS: -3.745%; ClpP1P2: 2.356%. Result for COc1ccc2nc(C[C@@H]3C[C@@H](C(C)C)[C@H](CN)C=C3C)[nH]c2n1 was PfKRS1: 3.73%; MtTrpRS: 1.883%; ClpP1P2: 1.339%. For CC(=O)N1CCc2cc(C(=O)O)c(-c3ccsc3)nc2CC1 the result was PfKRS1: 7.363%; MtTrpRS: 0.3236%; ClpP1P2: 3.044%. Result for COc1ccc(CN2C[C@@H](CN(C)CCO)[C@@H](CO)C2)cc1Cl was PfKRS1: 1.588%; MtTrpRS: 2.189%; ClpP1P2: 0.259%. With CN(Cc1cc2n(n1)CCNC2)Cc1cc(-c2ccccn2)no1 the screen gave PfKRS1: 2.068%; MtTrpRS: 0.7064%; ClpP1P2: 7.296%. For CC(=O)N1CCC(C(=O)NCCN2CCC(C)CC2)CC1 the result was PfKRS1: 1.372%; MtTrpRS: 2.085%; ClpP1P2: -4.688%.

COc1ccc(CNC(=O)NCCCNS(C)(=O)=O)cc1OC read PfKRS1: 0.3565%; MtTrpRS: -7.54%; ClpP1P2: -9.682%. CC(C)CN1CCCC1c1ccc(C(=O)Nc2cccnc2)s1 (centres unmarked) gave PfKRS1: 2.063%; MtTrpRS: 2.918%; ClpP1P2: -2.188%. Result for CCc1cccc(CC)c1NC(=O)c1ccccc1N(C)S(C)(=O)=O was PfKRS1: 2.628%; MtTrpRS: -1.677%; ClpP1P2: -13.51%. With Fc1ccc(-c2cnc(CNC3CCc4ncnn4C3)o2)cc1 (centres unmarked) the screen gave PfKRS1: 12.79%; MtTrpRS: 0.892%; ClpP1P2: 8.871%. O=C(C1CC1)N1CC[C@H](c2nc3ccccc3o2)C1 read PfKRS1: 4.587%; MtTrpRS: 6.401%; ClpP1P2: 1.089%. For CCc1[nH]c2c(CNC(=O)[C@@H]3CCCN3C)cc(C)cc2c1C the result was PfKRS1: -2.229%; MtTrpRS: -2.605%; ClpP1P2: -0.3175%. Result for COCCOCC(=O)Nc1ccnn1-c1ccc(Cl)cc1 was PfKRS1: 1.908%; MtTrpRS: 0.2987%; ClpP1P2: -16.09%. With Cc1ccc2c(C)c(C(=O)NCc3csc(N)n3)oc2c1 the screen gave PfKRS1: 10.55%; MtTrpRS: 1.487%; ClpP1P2: -5.075%.

O=C1CC2(CCN(Cc3ncc[nH]3)CC2)CN1Cc1ccc(Cl)cc1 gave PfKRS1: -0.8016%; MtTrpRS: -2.401%; ClpP1P2: -7.939%. For CC(NC(=O)C(C)(C)C#N)c1ccc(OCC2CC2)c(F)c1 (centres unmarked) the result was PfKRS1: 4.121%; MtTrpRS: 2.638%; ClpP1P2: -13.07%. With CCc1sc(-c2nnc(CNC(C)Cn3cccn3)o2)cc1C (centres unmarked) the screen gave PfKRS1: 8.414%; MtTrpRS: 2.249%; ClpP1P2: -10.98%. For Cc1noc2ncc(C(=O)N(CC3CCOC3)C3CC3)cc12 (centres unmarked) the result was PfKRS1: -2.583%; MtTrpRS: 0%; ClpP1P2: -1.038%. With O=C(CCOc1ccccc1)N1CCC(Nc2cccnn2)CC1 the screen gave PfKRS1: 2.059%; MtTrpRS: -2.827%; ClpP1P2: 7.091%. For CCc1cc(NC(=O)c2cccc(OCC(F)(F)F)n2)[nH]n1 the result was PfKRS1: 3.227%; MtTrpRS: -6.442%; ClpP1P2: -3.965%. Cn1cc(C(=O)N2CC[C@@]3(O)CCN(C(=O)C4CCCC4)C[C@H]3C2)cn1 read PfKRS1: 1.919%; MtTrpRS: -2.464%; ClpP1P2: -8.905%. c1cc(-c2ccc(CN3CCC4(CCNCC4)CC3)s2)[nH]n1 gave PfKRS1: 2.281%; MtTrpRS: -4.056%; ClpP1P2: -8.335%.

Some entries from above, unchanged:

compound,PfKRS1,MtTrpRS,ClpP1P2
c1cc(-c2ccc(CN3CCC4(CCNCC4)CC3)s2)[nH]n1,2.281,-4.056,-8.335
COc1ccc2nc(C[C@@H]3C[C@@H](C(C)C)[C@H](CN)C=C3C)[nH]c2n1,3.73,1.883,1.339

From ChEMBL document CHEMBL3988442, “University of Dundee, Small-Polar-MMV Screening Library” (2021).